The exact form of at least one protein or probe is not confirmed. At least one verdict was read from the data and is not stated in words by the source.
What was measured:
[1] = test system: 30S ribosomal subunit + initiation factor IF1 + initiation factor IF3 + initiation factor IF2; assay: cryo-EM; details: GE81112A, with fMet-tRNAfMet, IF2-containing class; cryo-EM of 30S with IF1, IF2, IF3, fMet-tRNAfMet, MF-mRNA and antibiotic; 30S reactivated at 21 mM MgCl2, 37 C, 30 min; complex buffer; native protein
[2] = test system: 30S ribosomal subunit + initiation factor IF1 + initiation factor IF3; assay: cryo-EM; details: cryo-EM of 30S with IF1, IF2, IF3, fMet-tRNAfMet, MF-mRNA and antibiotic, 30S reactivated at 21 mM MgCl2, 37 C, 30 min, complex buffer, native protein

Measured: binding result

AAACAAUUGGAGGAAUAAGGUAUGUUUGGCGGAAAACGAG [MF-mRNA (Met-Phe-mRNA)]
binds: [1] | [2]; GE81112A, class without tRNA | [2]; GE81112A, with fMet-tRNAfMet, start codon recognised | [2]; edeine, class without tRNA, SD-antiSD helix density only, no mRNA density in A, P, E sites | [2]; kasugamycin, class without tRNA

— PMC11903750
